# Experimental data as given in the supplement of paper PMC10849652.
# Amino acid sequences for entries named in this document (tags omitted). A change or cut given only in a name is not applied to a line headed by its entry.
# UniProt Q13535: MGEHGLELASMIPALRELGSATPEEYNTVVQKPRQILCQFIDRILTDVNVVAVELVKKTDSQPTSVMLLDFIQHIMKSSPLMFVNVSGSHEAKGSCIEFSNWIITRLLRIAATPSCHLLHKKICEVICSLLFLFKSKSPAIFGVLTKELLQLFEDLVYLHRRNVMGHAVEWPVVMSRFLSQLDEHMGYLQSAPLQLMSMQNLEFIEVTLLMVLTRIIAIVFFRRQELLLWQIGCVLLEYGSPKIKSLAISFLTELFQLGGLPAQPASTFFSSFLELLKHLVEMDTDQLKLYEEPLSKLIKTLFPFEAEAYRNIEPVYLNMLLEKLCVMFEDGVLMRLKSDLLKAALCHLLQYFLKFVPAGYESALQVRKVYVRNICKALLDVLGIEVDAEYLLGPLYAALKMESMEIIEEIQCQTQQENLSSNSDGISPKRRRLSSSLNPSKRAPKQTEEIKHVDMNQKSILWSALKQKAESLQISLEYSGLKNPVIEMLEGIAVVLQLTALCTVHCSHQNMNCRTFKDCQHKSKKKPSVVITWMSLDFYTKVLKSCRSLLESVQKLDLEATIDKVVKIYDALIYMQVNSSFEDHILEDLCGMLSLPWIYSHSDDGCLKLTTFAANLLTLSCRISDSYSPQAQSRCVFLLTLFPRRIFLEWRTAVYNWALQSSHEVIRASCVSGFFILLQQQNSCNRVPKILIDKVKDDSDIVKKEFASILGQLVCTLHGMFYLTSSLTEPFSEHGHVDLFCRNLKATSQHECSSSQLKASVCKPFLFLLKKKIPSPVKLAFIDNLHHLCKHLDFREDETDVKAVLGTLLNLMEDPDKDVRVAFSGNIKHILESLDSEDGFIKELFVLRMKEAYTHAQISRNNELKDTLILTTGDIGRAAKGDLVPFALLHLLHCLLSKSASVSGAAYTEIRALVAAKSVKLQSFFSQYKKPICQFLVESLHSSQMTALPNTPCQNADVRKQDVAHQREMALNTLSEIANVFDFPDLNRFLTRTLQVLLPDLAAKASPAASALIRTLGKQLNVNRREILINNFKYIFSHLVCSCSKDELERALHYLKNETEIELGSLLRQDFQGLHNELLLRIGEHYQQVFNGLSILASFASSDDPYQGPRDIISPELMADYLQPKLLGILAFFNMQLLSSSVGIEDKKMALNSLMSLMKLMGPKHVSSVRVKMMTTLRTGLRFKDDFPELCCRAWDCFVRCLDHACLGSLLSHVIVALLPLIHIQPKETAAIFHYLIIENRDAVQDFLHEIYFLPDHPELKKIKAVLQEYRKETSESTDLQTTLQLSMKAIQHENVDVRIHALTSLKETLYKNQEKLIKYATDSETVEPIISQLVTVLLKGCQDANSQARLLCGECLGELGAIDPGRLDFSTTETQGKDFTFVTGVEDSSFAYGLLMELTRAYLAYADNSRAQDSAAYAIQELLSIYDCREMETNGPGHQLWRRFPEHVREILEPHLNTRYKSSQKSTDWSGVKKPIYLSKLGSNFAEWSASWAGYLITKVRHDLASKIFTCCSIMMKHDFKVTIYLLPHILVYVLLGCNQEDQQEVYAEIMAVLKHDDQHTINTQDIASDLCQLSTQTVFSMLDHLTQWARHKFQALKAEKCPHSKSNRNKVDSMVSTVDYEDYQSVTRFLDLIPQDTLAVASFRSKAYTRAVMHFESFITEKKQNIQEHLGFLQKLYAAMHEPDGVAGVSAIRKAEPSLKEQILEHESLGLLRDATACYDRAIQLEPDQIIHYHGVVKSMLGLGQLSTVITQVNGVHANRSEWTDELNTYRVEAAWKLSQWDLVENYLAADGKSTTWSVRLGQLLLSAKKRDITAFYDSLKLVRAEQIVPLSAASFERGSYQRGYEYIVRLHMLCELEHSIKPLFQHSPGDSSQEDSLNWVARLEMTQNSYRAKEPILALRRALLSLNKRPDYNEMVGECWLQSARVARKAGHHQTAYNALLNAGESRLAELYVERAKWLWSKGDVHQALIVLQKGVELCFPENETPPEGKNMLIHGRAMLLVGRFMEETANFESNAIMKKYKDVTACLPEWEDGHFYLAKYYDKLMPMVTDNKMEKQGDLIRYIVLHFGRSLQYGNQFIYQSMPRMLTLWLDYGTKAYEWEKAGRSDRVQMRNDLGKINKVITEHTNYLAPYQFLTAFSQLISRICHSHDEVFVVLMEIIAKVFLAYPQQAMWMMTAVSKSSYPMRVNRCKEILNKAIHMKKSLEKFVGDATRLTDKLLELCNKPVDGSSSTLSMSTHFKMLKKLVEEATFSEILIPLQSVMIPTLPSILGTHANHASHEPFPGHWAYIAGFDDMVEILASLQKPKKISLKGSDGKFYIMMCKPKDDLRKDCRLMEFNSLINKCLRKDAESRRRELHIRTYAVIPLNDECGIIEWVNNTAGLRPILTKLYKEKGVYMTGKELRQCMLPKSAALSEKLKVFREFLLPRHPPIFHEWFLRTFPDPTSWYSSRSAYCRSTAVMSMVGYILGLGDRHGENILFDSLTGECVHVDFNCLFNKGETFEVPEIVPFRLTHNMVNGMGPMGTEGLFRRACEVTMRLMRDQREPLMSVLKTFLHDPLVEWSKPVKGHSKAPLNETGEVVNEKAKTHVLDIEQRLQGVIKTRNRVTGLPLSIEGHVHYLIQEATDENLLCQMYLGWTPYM
# UniProt Q9Y276: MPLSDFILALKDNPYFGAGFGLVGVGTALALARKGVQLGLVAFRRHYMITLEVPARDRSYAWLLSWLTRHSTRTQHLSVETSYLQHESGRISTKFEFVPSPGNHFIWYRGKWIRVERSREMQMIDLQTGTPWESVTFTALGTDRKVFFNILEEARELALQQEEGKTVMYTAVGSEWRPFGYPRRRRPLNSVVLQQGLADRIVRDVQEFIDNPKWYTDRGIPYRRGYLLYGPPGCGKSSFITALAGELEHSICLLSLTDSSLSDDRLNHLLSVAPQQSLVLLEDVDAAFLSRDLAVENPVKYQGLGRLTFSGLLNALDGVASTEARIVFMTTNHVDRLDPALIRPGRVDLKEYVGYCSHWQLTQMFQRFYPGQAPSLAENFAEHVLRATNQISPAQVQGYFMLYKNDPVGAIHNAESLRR
# UniProt Q67FW5: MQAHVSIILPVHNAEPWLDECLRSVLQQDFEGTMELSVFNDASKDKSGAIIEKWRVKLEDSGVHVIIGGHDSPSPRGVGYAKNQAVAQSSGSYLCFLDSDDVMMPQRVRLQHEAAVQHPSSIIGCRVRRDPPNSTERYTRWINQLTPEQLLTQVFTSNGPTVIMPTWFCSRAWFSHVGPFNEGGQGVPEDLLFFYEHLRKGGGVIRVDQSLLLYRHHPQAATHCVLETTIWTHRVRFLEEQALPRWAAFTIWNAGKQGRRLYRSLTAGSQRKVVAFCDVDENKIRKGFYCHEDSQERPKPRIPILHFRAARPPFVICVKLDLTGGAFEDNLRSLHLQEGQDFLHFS
# UniProt P78537: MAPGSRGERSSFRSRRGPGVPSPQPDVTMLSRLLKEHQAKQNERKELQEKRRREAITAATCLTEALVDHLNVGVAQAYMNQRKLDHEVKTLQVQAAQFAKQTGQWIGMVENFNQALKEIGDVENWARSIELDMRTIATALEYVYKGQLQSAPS
# UniProt Q16611: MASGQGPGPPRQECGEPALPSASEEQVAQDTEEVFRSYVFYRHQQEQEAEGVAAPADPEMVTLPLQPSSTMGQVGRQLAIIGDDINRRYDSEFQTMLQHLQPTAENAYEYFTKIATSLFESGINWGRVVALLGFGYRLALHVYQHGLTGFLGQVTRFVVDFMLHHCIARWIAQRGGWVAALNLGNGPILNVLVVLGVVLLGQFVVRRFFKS
# UniProt Q6UW56: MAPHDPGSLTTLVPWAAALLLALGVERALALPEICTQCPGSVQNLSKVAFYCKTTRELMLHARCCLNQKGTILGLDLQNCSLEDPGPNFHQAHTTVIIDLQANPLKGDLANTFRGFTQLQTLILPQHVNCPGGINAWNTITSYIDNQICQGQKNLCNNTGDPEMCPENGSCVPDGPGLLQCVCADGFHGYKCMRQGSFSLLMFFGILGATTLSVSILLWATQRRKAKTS
# UniProt Q14137: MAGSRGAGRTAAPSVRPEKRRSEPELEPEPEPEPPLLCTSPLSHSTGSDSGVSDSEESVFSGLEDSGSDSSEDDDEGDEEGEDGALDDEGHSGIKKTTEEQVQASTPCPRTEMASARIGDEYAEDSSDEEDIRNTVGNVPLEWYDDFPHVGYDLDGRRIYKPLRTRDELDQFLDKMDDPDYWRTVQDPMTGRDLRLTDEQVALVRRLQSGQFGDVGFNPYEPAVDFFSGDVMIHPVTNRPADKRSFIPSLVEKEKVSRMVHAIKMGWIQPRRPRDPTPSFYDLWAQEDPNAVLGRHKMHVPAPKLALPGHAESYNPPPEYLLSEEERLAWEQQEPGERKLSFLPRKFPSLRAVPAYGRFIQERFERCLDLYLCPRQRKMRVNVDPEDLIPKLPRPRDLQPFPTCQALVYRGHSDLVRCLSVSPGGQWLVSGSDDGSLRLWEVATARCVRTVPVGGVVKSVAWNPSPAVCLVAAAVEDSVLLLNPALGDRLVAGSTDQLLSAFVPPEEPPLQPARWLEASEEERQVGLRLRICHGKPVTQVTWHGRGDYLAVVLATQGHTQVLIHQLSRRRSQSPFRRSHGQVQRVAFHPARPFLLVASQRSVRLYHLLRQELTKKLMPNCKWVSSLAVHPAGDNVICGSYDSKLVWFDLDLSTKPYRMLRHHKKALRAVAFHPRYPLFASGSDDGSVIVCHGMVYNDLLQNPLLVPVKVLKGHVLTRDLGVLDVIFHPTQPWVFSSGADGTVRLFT
# UniProt Q07817, whole entry, looked up: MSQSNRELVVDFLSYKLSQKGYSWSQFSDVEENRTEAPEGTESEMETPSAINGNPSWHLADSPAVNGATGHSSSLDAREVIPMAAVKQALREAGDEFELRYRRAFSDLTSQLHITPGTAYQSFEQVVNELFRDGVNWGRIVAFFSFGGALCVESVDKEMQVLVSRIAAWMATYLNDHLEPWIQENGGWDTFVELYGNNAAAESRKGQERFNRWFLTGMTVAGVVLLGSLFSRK
# UniProt Q9BX63: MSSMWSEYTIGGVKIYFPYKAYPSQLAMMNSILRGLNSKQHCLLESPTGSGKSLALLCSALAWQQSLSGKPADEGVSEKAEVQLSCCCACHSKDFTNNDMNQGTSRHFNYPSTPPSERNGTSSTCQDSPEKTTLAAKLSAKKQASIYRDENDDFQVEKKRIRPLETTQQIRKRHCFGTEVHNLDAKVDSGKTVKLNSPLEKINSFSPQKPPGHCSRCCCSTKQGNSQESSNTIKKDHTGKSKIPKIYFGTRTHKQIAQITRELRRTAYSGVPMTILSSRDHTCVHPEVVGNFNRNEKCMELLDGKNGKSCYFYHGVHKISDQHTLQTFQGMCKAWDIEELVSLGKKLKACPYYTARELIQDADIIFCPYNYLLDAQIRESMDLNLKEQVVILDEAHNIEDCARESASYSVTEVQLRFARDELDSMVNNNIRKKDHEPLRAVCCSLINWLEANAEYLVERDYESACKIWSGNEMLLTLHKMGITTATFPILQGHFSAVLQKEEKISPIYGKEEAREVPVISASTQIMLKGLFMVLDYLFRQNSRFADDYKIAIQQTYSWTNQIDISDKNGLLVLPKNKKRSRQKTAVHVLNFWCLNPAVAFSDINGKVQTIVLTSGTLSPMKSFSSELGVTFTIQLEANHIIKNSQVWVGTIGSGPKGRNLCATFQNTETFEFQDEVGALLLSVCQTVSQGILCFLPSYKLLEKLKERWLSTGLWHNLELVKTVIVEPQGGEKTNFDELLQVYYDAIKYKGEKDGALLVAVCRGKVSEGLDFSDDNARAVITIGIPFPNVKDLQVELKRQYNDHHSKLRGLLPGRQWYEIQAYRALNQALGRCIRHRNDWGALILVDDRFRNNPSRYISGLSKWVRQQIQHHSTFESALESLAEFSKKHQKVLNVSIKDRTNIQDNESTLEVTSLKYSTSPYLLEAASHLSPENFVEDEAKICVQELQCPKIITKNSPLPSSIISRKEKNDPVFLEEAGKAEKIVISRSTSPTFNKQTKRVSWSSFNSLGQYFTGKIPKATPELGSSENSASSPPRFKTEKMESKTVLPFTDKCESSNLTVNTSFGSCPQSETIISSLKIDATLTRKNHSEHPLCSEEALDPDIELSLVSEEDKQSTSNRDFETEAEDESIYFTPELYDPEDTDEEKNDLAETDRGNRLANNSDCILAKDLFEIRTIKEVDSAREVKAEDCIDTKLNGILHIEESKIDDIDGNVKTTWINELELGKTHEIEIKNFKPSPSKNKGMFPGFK
# UniProt Q9HB09: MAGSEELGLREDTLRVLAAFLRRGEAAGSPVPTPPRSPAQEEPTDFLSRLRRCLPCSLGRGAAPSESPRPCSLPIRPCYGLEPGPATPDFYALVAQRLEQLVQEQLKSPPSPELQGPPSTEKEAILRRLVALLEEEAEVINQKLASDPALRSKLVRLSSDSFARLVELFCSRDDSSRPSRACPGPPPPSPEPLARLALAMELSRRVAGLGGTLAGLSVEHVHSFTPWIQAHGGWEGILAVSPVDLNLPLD
# This is one part of the list.
# Experiments:
# Test in all cases: log2 fold change, soluble protein after heating vs DMSO (PISA); higher = thermal stabilisation; K562 cells, 10 uM, 30 min; active = over 0.2 and 3.5 SD of the protein, either way, in both replicates (recomputed)
# bafetinib = compound: Cc1ccc(NC(=O)c2ccc(CN3CC[C@H](N(C)C)C3)c(C(F)(F)F)c2)cc1Nc1nccc(-c2cncnc2)n1 [bafetinib]
# How it was run: (§1)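 K562 cells at 2×10^6 cells/mL were treated with 10 μM compound for 30 min. Aliquots were heated for 3 min across 48°C-58°C, pooled, and extracted in PBS with 0.5% NP-40 at 4°C; soluble protein was the supernatant after 21,000xg for 90 min. Soluble protein was quantified by TMTpro 16plex LC-MS/MS with channel sums equalised, and reported as log2 fold change in thermal stability against DMSO controls, with values from duplicates.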
# [1] = compound: Cc1cccc(CC(=O)N2CCc3c2ccc(-c2cn(C)c4ncnc(N)c24)c3F)n1
# How it was run: as §1
# nilotinib = compound: Cc1cn(-c2cc(NC(=O)c3ccc(C)c(Nc4nccc(-c5cccnc5)n4)c3)cc(C(F)(F)F)c2)cn1 [nilotinib]
# How it was run: as §1
# [2] = compound: Cc1nc(Nc2n[nH]c3c2CN(C(=O)N[C@H](CN(C)C)c2ccccc2)C3(C)C)c2sccc2n1
# How it was run: as §1
# dasatinib = compound: Cc1nc(Nc2ncc(C(=O)Nc3c(C)cccc3Cl)s2)cc(N2CCN(CCO)CC2)n1 [dasatinib]
# How it was run: as §1
# [3] = compound: Cc1ncc(-c2ccnc(Nc3ccc(S(C)(=O)=O)cc3)n2)n1C(C)C
# How it was run: as §1
# [4] = compound: Cn1cc(-c2ccc3c(c2)CCN3C(=O)Cc2cccc(C(F)(F)F)c2)c2c(N)ncnc21
# How it was run: as §1
# [5] = compound: Cn1cc(-c2ccc3nnc(C(F)(F)c4ccc5ncccc5c4)n3n2)cn1
# How it was run: as §1
# tipifarnib = compound: Cn1cncc1[C@@](N)(c1ccc(Cl)cc1)c1ccc2c(c1)c(-c1cccc(Cl)c1)cc(=O)n2C [tipifarnib]
# How it was run: as §1
# mubritinib = compound: FC(F)(F)c1ccc(/C=C/c2nc(COc3ccc(CCCCn4ccnn4)cc3)co2)cc1 [mubritinib]
# How it was run: as §1
# [6] = compound: NC(=O)Nc1cc(-c2cccc(F)c2)sc1C(=O)N[C@H]1CCCNC1
# How it was run: as §1
# [7] = compound: NC(=O)c1cnc(N[C@@H]2CCCC[C@@H]2N)nc1Nc1cccc(-n2nccn2)c1
# How it was run: as §1
# [8] = compound: NC1(c2ccc(-c3nc4ccn5c(=O)[nH]nc5c4cc3-c3ccccc3)cc2)CCC1
# How it was run: as §1
# [9] = compound: NCC(=O)Nc1ccc(-n2nc(C(F)(F)F)cc2-c2ccc3c(ccc4ccccc43)c2)cc1
# How it was run: as §1
# entinostat = compound: Nc1ccccc1NC(=O)c1ccc(CNC(=O)OCc2cccnc2)cc1 [entinostat]
# How it was run: as §1
# vorinostat = compound: O=C(CCCCCCC(=O)Nc1ccccc1)NO [vorinostat]
# How it was run: as §1
# citarinostat = compound: O=C(CCCCCCNC(=O)c1cnc(N(c2ccccc2)c2ccccc2Cl)nc1)NO [citarinostat]
# How it was run: as §1
# silmitasertib = compound: O=C(O)c1ccc2c(c1)nc(Nc1cccc(Cl)c1)c1ccncc12 [silmitasertib]
# How it was run: as §1
# [10] = compound: O=C1NC(=O)C(c2cnc3ccccn23)=C1c1cn2c3c(cc(F)cc13)CN(C(=O)N1CCCCC1)CC2
# How it was run: as §1
# [11] = compound: c1cc(OCCN2CCCCC2)cc(-c2n[nH]c3ccc(-c4nnc[nH]4)cc23)c1
# How it was run: as §1
Target,log2 fold change (bafetinib),log2 fold change [1],log2 fold change (nilotinib),log2 fold change [2],log2 fold change (dasatinib),log2 fold change [3],log2 fold change [4],log2 fold change [5],log2 fold change (tipifarnib),log2 fold change (mubritinib),log2 fold change [6],log2 fold change [7],log2 fold change [8],log2 fold change [9],log2 fold change (entinostat),log2 fold change (vorinostat),log2 fold change (citarinostat),log2 fold change (silmitasertib),log2 fold change [10],log2 fold change [11]
B4GALT1 (UniProt P15291),inactive: -0.062,inactive: 0.009,inactive: 0.066,inactive: -0.025,inactive: -0.083,inactive: 0.021,inactive: -0.005,inactive: 0.04,inactive: 0.153,inactive: 0.029,inactive: 0.053,inactive: 0.114,inactive: -0.279,inactive: 0.199,inactive: -0.01,inactive: -0.01,inactive: 0,inactive: 0,inactive: -0.039,inactive: -0.027
BAIAP2 (UniProt Q9UQB8),inactive: -0.009,inactive: 0.032,inactive: -0.061,inactive: -0.05,inactive: -0.066,inactive: -0.038,inactive: 0.03,inactive: -0.032,inactive: -0.035,inactive: 0.06,active: -0.229,inactive: -0.083,inactive: -0.086,inactive: -0.014,inactive: 0.019,inactive: 0.082,inactive: 0.031,inactive: -0.016,inactive: 0.04,inactive: -0.034
ATR (UniProt Q13535),inactive: -0.036,inactive: -0.028,inactive: -0.07,inactive: 0.036,inactive: -0.123,inactive: -0.054,inactive: 0.012,inactive: 0.039,inactive: -0.022,inactive: -0.013,inactive: -0.003,inactive: 0.002,inactive: 0.044,inactive: -0.089,inactive: 0.017,inactive: 0.057,inactive: 0.039,inactive: 0.035,inactive: -0.058,inactive: -0.066
BCS1L (UniProt Q9Y276),inactive: -0.064,inactive: -0.026,inactive: -0.027,inactive: 0.028,inactive: 0.028,inactive: -0.007,inactive: 0.05,inactive: 0.025,inactive: 0.023,inactive: 0.051,inactive: -0.014,inactive: -0.022,inactive: -0.021,inactive: -0.029,inactive: -0.024,inactive: -0.025,inactive: 0.028,inactive: -0.023,inactive: -0.063,inactive: -0.003
B3GNTL1 (UniProt Q67FW5),inactive: -0.098,inactive: -0.056,inactive: 0.029,inactive: 0.159,inactive: 0.036,inactive: 0.017,inactive: 0.004,inactive: -0.231,inactive: -0.082,inactive: 0.029,inactive: -0.071,inactive: 0,inactive: -0.017,inactive: -0.12,inactive: -0.013,inactive: 0.022,,inactive: 0.023,inactive: 0.237,
BLOC1S1 (UniProt P78537),inactive: 0.004,inactive: -0.094,inactive: 0.021,inactive: -0.017,inactive: -0.003,inactive: -0.009,inactive: 0.04,inactive: 0.152,inactive: -0.026,inactive: -0.026,inactive: 0.112,inactive: -0.008,inactive: -0.049,inactive: -0.039,inactive: -0.022,inactive: -0.195,inactive: -0.018,inactive: -0.044,inactive: -0.047,inactive: 0.063
BAK1 (UniProt Q16611),inactive: -0.098,inactive: -0.031,inactive: 0.038,inactive: -0.011,inactive: 0.084,inactive: -0.042,inactive: 0.06,,inactive: -0.114,inactive: 0.037,inactive: 0.044,inactive: 0.042,inactive: -0.031,inactive: -0.033,inactive: -0.026,inactive: -0.122,inactive: -0.024,inactive: 0.008,inactive: -0.002,inactive: -0.019
ATRAID isoform 3 (UniProt Q6UW56),inactive: -0.146,inactive: 0.019,inactive: 0.009,inactive: 0.082,inactive: 0.057,inactive: -0.103,inactive: 0.056,inactive: -0.004,inactive: 0.199,inactive: -0.074,inactive: 0.009,inactive: 0.01,inactive: -0.015,inactive: -0.06,inactive: -0.022,inactive: 0.063,inactive: 0.036,inactive: 0.022,,inactive: 0.003
BOP1 (UniProt Q14137),inactive: 0.031,inactive: -0.083,inactive: -0.028,inactive: -0.159,inactive: 0.02,inactive: -0.122,inactive: -0.038,inactive: -0.087,inactive: 0.114,inactive: -0.114,inactive: 0.002,inactive: -0.027,inactive: 0.04,inactive: -0.018,inactive: -0.004,inactive: 0.107,inactive: 0.035,inactive: 0.038,active: -0.351,inactive: -0.073
BCL2L1 (UniProt Q07817),inactive: 0.009,inactive: -0.083,inactive: 0.051,inactive: 0.002,inactive: -0.086,inactive: 0.021,inactive: 0.051,inactive: -0.049,inactive: 0.042,inactive: 0.027,inactive: 0.05,inactive: -0.03,inactive: 0.021,inactive: -0.001,inactive: 0.099,inactive: 0.127,inactive: 0.084,inactive: 0.012,inactive: -0.011,inactive: -0.043
BRIP1 (UniProt Q9BX63),inactive: -0.135,inactive: -0.011,inactive: -0.069,inactive: 0.036,inactive: -0.09,inactive: -0.071,inactive: 0.02,inactive: -0.197,inactive: -0.101,,inactive: 0.139,inactive: -0.139,,inactive: -0.099,inactive: 0.001,inactive: -0.025,inactive: 0.054,,inactive: -0.07,inactive: 0.077
BCL2L12 (UniProt Q9HB09),inactive: 0.006,inactive: 0.009,inactive: -0.117,inactive: -0.174,inactive: 0.088,inactive: 0.034,inactive: 0.033,inactive: 0.047,inactive: -0.015,inactive: -0.001,,inactive: 0.056,inactive: -0.156,inactive: 0.011,,inactive: -0.167,inactive: 0.032,inactive: 0.093,inactive: 0.047,inactive: -0.134
BAG6 isoform 3 (UniProt P46379),inactive: -0.029,inactive: 0.026,inactive: -0.03,inactive: 0.007,inactive: -0.061,inactive: 0.016,inactive: -0.044,inactive: -0.011,inactive: -0.066,inactive: -0.007,inactive: -0.002,inactive: -0.098,inactive: -0.128,inactive: -0.032,inactive: 0.033,inactive: 0.04,inactive: 0.028,inactive: 0.05,inactive: -0.009,inactive: -0.043
BAHCC1 (UniProt Q9P281),inactive: 0.077,inactive: -0.128,inactive: -0.081,inactive: 0.115,inactive: 0.092,inactive: -0.059,inactive: -0.216,inactive: 0.171,inactive: 0.107,inactive: -0.039,inactive: -0.271,inactive: -0.383,inactive: -0.3,inactive: -0.46,inactive: -0.088,inactive: -0.044,inactive: -0.136,inactive: 0.159,inactive: 0.026,inactive: -0.213
BORCS6 (UniProt Q96GS4),inactive: -0.066,inactive: 0.043,inactive: -0.016,inactive: 0.043,inactive: 0.069,inactive: -0.106,inactive: 0.048,inactive: 0.012,inactive: 0.002,inactive: 0.083,inactive: -0.036,inactive: -0.032,inactive: -0.115,inactive: 0.027,inactive: 0.004,inactive: 0.065,inactive: 0.064,inactive: -0.049,inactive: -0.105,inactive: -0.006
B3GNT2 (UniProt Q9NY97),inactive: -0.057,inactive: -0.034,inactive: 0.025,inactive: -0.055,inactive: -0.08,inactive: -0.023,inactive: 0.056,inactive: 0.004,inactive: 0.042,inactive: 0.084,inactive: -0.117,inactive: 0,inactive: -0.041,inactive: 0.05,inactive: -0.023,inactive: -0.014,inactive: -0.008,inactive: -0.017,inactive: -0.071,inactive: -0.023

# Copied from the results shown for reference:
Target,log2 fold change (bafetinib),log2 fold change [1],log2 fold change (nilotinib),log2 fold change [2],log2 fold change (dasatinib),log2 fold change [3],log2 fold change [4],log2 fold change [5],log2 fold change (tipifarnib),log2 fold change (mubritinib),log2 fold change [6],log2 fold change [7],log2 fold change [8],log2 fold change [9],log2 fold change (entinostat),log2 fold change (vorinostat),log2 fold change (citarinostat),log2 fold change (silmitasertib),log2 fold change [10],log2 fold change [11]
BRIP1 (UniProt Q9BX63),inactive: -0.135,inactive: -0.011,inactive: -0.069,inactive: 0.036,inactive: -0.09,inactive: -0.071,inactive: 0.02,inactive: -0.197,inactive: -0.101,,inactive: 0.139,inactive: -0.139,,inactive: -0.099,inactive: 0.001,inactive: -0.025,inactive: 0.054,,inactive: -0.07,inactive: 0.077
BCL2L12 (UniProt Q9HB09),inactive: 0.006,inactive: 0.009,inactive: -0.117,inactive: -0.174,inactive: 0.088,inactive: 0.034,inactive: 0.033,inactive: 0.047,inactive: -0.015,inactive: -0.001,,inactive: 0.056,inactive: -0.156,inactive: 0.011,,inactive: -0.167,inactive: 0.032,inactive: 0.093,inactive: 0.047,inactive: -0.134
